Data from the primary screen of doi:10.1371/journal.pone.0140310, rounded.

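Human melanoma cell lines in 1,536-well plates were treated with two drugs together for 72 h, then fixed, stained and imaged. Each value is the count of nuclei relative to DMSO-treated wells, in %, so that 100 equals the control. Every drug was used at one fixed concentration, the lower of two screened (a fifth of the higher). No replicate spread is given; individual values may be noisy.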 An unselected part of the screen is shown.

Compounds and concentrations:
fingolimod: CCCCCCCCc1ccc(CCC(N)(CO)CO)cc1 at 2 µM
dasatinib: Cc1nc(Nc2ncc(C(=O)Nc3c(C)cccc3Cl)s2)cc(N2CCN(CCO)CC2)n1 at 0.004 µM
KU-0063794: COc1ccc(-c2ccc3c(N4CCOCC4)nc(N4C[C@@H](C)O[C@@H](C)C4)nc3n2)cc1CO at 0.02 µM
VX-702: NC(=O)c1ccc(N(C(N)=O)c2c(F)cccc2F)nc1-c1ccc(F)cc1F at 0.4 µM
PLX4720: CCCS(=O)(=O)Nc1ccc(F)c(C(=O)c2c[nH]c3ncc(Cl)cc23)c1F at 0.08 µM
YM155: COCC[n+]1c2c(n(Cc3cnccn3)c1C)C(=O)c1ccccc1C2=O at 0.0004 µM
PF-562271: CN(c1ncccc1CNc1nc(Nc2ccc3c(c2)CC(=O)N3)ncc1C(F)(F)F)S(C)(=O)=O at 0.08 µM
temozolomide: Cn1nnc2c(C(N)=O)ncn2c1=O at 2 µM
palbociclib: CC(=O)c1c(C)c2cnc(Nc3ccc(N4CCNCC4)cn3)nc2n(C2CCCC2)c1=O at 0.04 µM
enzastaurin: Cn1cc(C2=C(c3cn(C4CCN(Cc5ccccn5)CC4)c4ccccc34)C(=O)NC2=O)c2ccccc21 at 0.8 µM

- enzastaurin + VX-702 : IST-MEL1: 103; LOX IMVI: 134; COLO 792: 117; G-361: 107
- PF-562271 + dasatinib : IST-MEL1: 93.6; LOX IMVI: 86.2; COLO 792: 66.6; G-361: 94.2
- fingolimod + palbociclib : IST-MEL1: 89.8; LOX IMVI: 84.6; COLO 792: 74.8; G-361: 64.4
- dasatinib + PLX4720 : IST-MEL1: 85.5; LOX IMVI: 89.9; COLO 792: 62.2; G-361: 81.4
- palbociclib + KU-0063794 : IST-MEL1: 102; LOX IMVI: 113; COLO 792: 77.2; G-361: 82.5
- PF-562271 + VX-702 : IST-MEL1: 97.1; LOX IMVI: 55.8; COLO 792: 62.9; G-361: 81.3
- KU-0063794 + dasatinib : IST-MEL1: 83.0; LOX IMVI: 23.5; COLO 792: 63.5; G-361: 97.1
- PLX4720 + PF-562271 : IST-MEL1: 84.7; LOX IMVI: 85.4; COLO 792: 76.7; G-361: 75.0
- temozolomide + PF-562271 : IST-MEL1: 88.0; LOX IMVI: 65.3; COLO 792: 82.2; G-361: 81.5
- PF-562271 + fingolimod : IST-MEL1: 105; LOX IMVI: 55.2; COLO 792: 76.4; G-361: 89.8
- temozolomide + PLX4720 : IST-MEL1: 105; LOX IMVI: 104; COLO 792: 104; G-361: 96.6
- fingolimod + KU-0063794 : IST-MEL1: 99.1; LOX IMVI: 59.8; COLO 792: 104; G-361: 93.6
- YM155 + PF-562271 : IST-MEL1: 92.9; LOX IMVI: 77.5; COLO 792: 80.1; G-361: 101
- KU-0063794 + YM155 : IST-MEL1: 74.1; LOX IMVI: 65.2; COLO 792: 100; G-361: 111
- VX-702 + KU-0063794 : IST-MEL1: 98.9; LOX IMVI: 113; COLO 792: 96.5; G-361: 90.8
- YM155 + PLX4720 : IST-MEL1: 89.3; LOX IMVI: 76.1; COLO 792: 86.1; G-361: 93.7
- dasatinib + VX-702 : IST-MEL1: 91.6; LOX IMVI: 65.2; COLO 792: 54.0; G-361: 77.8
- fingolimod + PLX4720 : IST-MEL1: 99.2; LOX IMVI: 139; COLO 792: 97.6; G-361: 96.0
- PLX4720 + palbociclib : IST-MEL1: 82.4; LOX IMVI: 70.1; COLO 792: 74.3; G-361: 82.7
- temozolomide + enzastaurin : IST-MEL1: 101; LOX IMVI: 44.2; COLO 792: 84.1; G-361: 102
- PLX4720 + VX-702 : IST-MEL1: 92.9; LOX IMVI: 65.7; COLO 792: 120; G-361: 95.2
- enzastaurin + fingolimod : IST-MEL1: 103; LOX IMVI: 50.4; COLO 792: 95.1; G-361: 87.8
- VX-702 + temozolomide : IST-MEL1: 86.1; LOX IMVI: 150; COLO 792: 96.2; G-361: 81.3
- KU-0063794 + PF-562271 : IST-MEL1: 96.2; LOX IMVI: 95.4; COLO 792: 76.7; G-361: 102
- YM155 + fingolimod : IST-MEL1: 92.7; LOX IMVI: 78.8; COLO 792: 100; G-361: 90.7
- fingolimod + dasatinib : IST-MEL1: 95.2; LOX IMVI: 45.9; COLO 792: 63.0; G-361: 82.3
- palbociclib + dasatinib : IST-MEL1: 87.8; LOX IMVI: 39.6; COLO 792: 45.6; G-361: 76.2
- palbociclib + enzastaurin : IST-MEL1: 86.0; LOX IMVI: 94.5; COLO 792: 75.1; G-361: 92.1
- dasatinib + YM155 : IST-MEL1: 90.9; LOX IMVI: 40.6; COLO 792: 46.0; G-361: 82.0
- VX-702 + YM155 : IST-MEL1: 83.6; LOX IMVI: 81.5; COLO 792: 96.8; G-361: 107
- KU-0063794 + temozolomide : IST-MEL1: 94.6; LOX IMVI: 80.5; COLO 792: 104; G-361: 100
- fingolimod + VX-702 : IST-MEL1: 91.4; LOX IMVI: 107; COLO 792: 81.8; G-361: 88.2
- fingolimod + temozolomide : IST-MEL1: 98.5; LOX IMVI: 63.4; COLO 792: 90.2; G-361: 88.2
- palbociclib + YM155 : IST-MEL1: 71.3; LOX IMVI: 101; COLO 792: 64.0; G-361: 83.3
- PF-562271 + enzastaurin : IST-MEL1: 103; LOX IMVI: 184; COLO 792: 91.7; G-361: 89.9
- dasatinib + temozolomide : IST-MEL1: 89.4; LOX IMVI: 46.4; COLO 792: 60.6; G-361: 92.4
- enzastaurin + PLX4720 : IST-MEL1: 97.5; LOX IMVI: 87.3; COLO 792: 99.5; G-361: 76.1
- PF-562271 + palbociclib : IST-MEL1: 92.8; LOX IMVI: 57.4; COLO 792: 69.7; G-361: 93.9
- palbociclib + temozolomide : IST-MEL1: 92.3; LOX IMVI: 117; COLO 792: 73.5; G-361: 63.8

For reference, 3 entries once more:

- temozolomide + enzastaurin | IST-MEL1: 101; LOX IMVI: 44.2; COLO 792: 84.1; G-361: 102
- dasatinib + temozolomide | IST-MEL1: 89.4; LOX IMVI: 46.4; COLO 792: 60.6; G-361: 92.4
- PF-562271 + dasatinib | IST-MEL1: 93.6; LOX IMVI: 86.2; COLO 792: 66.6; G-361: 94.2